Results from patent US20220002551A1, “A NOVEL CLASS OF PIGMENTS IN ASPERGILLUS” (DANMARKS TEKNISKE UNIVERSITET, priority 2019, published 2022).

Experiments:
[1] = Coloration of milk, CIEL*a*b* colorimetric analysis; settings: skim milk; for ΔE*: versus 0 PPM
[2] = Coloration of skyr, CIEL*a*b* colorimetric analysis; settings: 46 PPM
[3] = Coloration of epoxy, CIEL*a*b* colorimetric analysis; settings: for ΔE*: versus 0 PPM
[4] = Coloration of homemade gummis, CIEL*a*b* colorimetric analysis; settings: gummi, 180 PPM

C/C=C\C1=CC2=CC3=C(C(=O)C(C)CC)C(=O)OC3(C)C(=O)C2=CN1C(CC(C)C)C(=O)O (stereo not drawn) [cis-cavernamine-L]
L*a*b* values: L ([1]; 28 PPM): L: 78.36 | L*a*b* values: a ([1]; 28 PPM): a: 6.07 | L*a*b* values: b ([1]; 28 PPM): b: 2.01 | ΔE* ([1]; 28 PPM): 12.07 | L*a*b* values: L ([1]; 140 PPM): L: 53.89 | L*a*b* values: a ([1]; 140 PPM): a: 15.22 | L*a*b* values: b ([1]; 140 PPM): b: 5.4 | ΔE* ([1]; 140 PPM): 37.37 | L*a*b* values: L ([1]; 280 PPM): L: 52.04 | L*a*b* values: a ([1]; 280 PPM): a: 18.10 | L*a*b* values: b ([1]; 280 PPM): b: 7.34 | ΔE* ([1]; 280 PPM): 40.74 | L*a*b* values: L [2]: L: 86.89 | L*a*b* values: a [2]: a: 6.40 | L*a*b* values: b [2]: b: 1.44 | ΔE* ([2]; versus 0 PPM): 12.48 | L*a*b* values: L ([3]; 30 PPM): L: 70.13 | L*a*b* values: a ([3]; 30 PPM): a: 4.81 | L*a*b* values: b ([3]; 30 PPM): b: 14.09 | ΔE* ([3]; 30 PPM): 17.64 | L*a*b* values: L ([3]; 600 PPM): L: 43.20 | L*a*b* values: a ([3]; 600 PPM): a: 15.33 | L*a*b* values: b ([3]; 600 PPM): b: 9.32 | ΔE* ([3]; 600 PPM): 40.99 | L*a*b* values: L [4]: L: 31.74 | L*a*b* values: a [4]: a: 21.89 | L*a*b* values: b [4]: b: 7.29 | ΔE* ([4]; versus 0 PPM): 22.96
